Some of the results follow.
Assays:
Experiment in all cases: log2 fold change, soluble protein after heating vs DMSO (PISA); higher = thermal stabilisation; K562 cells, 10 uM, 30 min; active = over 0.2 and 3.5 SD of the protein, either way, in both replicates (recomputed)
[1] = compound: NC(=O)Nc1cc(-c2cccc(F)c2)sc1C(=O)N[C@H]1CCCNC1
Summary of the method: (§1)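 Soluble protein was defined as the supernatant after 21,000xg for 90 min. It came from K562 cells at 2×10^6 cells/mL given 10 μM compound for 30 min, heated in aliquots for 3 min across 48°C-58°C, pooled, and extracted in PBS with 0.5% NP-40 at 4°C, and was quantified by TMTpro 16plex LC-MS/MS with equalised channel sums. Thermal stability against control samples, from duplicates, is reported as log2 fold change.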

Sequences of proteins named here, by UniProt entry; tags and fusion partners are left off. A change or cut given only in a name is not applied to a line headed by its entry.
UniProt P26038, whole entry, looked up: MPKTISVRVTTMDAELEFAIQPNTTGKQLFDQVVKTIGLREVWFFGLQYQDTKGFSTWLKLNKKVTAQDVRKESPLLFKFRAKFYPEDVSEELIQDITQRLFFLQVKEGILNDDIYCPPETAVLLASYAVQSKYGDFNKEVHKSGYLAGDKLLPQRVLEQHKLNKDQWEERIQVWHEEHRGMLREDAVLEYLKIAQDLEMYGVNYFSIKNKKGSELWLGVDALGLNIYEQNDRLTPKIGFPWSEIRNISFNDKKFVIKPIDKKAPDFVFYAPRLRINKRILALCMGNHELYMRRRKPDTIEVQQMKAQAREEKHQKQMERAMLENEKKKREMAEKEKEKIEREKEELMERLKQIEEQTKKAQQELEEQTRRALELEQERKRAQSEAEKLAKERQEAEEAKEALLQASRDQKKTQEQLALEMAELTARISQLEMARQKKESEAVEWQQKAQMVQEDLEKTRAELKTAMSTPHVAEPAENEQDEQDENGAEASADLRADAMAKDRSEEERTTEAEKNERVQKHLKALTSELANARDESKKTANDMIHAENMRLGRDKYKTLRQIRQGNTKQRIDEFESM
UniProt Q8NCE2: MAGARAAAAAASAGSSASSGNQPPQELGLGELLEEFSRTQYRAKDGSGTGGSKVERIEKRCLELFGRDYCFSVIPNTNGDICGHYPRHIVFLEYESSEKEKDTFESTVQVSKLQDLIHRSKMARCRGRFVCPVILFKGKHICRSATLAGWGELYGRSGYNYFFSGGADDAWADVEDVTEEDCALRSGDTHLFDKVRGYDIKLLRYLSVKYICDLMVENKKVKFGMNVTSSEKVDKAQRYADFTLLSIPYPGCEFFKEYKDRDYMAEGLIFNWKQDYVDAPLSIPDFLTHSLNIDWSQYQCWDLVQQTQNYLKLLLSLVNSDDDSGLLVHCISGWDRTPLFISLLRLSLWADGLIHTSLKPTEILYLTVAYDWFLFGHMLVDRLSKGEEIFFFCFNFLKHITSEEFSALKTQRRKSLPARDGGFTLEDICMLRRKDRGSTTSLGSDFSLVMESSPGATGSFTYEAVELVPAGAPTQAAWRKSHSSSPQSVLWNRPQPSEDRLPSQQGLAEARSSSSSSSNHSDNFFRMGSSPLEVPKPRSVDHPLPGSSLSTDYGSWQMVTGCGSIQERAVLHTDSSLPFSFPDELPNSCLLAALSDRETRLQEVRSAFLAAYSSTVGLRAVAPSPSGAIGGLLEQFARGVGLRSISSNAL
UniProt Q13505: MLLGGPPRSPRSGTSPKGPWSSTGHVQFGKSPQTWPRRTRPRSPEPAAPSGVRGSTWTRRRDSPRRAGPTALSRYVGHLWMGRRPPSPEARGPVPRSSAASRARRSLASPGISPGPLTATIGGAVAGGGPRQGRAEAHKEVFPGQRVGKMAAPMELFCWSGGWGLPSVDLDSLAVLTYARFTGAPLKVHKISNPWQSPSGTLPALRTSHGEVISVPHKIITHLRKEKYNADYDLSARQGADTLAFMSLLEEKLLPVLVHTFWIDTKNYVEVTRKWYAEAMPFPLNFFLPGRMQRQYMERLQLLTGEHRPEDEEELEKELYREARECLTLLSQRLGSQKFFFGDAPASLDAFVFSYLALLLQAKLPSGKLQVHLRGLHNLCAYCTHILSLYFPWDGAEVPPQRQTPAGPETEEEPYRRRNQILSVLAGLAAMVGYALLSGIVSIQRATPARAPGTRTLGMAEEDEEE
UniProt Q9UM54, whole entry, looked up: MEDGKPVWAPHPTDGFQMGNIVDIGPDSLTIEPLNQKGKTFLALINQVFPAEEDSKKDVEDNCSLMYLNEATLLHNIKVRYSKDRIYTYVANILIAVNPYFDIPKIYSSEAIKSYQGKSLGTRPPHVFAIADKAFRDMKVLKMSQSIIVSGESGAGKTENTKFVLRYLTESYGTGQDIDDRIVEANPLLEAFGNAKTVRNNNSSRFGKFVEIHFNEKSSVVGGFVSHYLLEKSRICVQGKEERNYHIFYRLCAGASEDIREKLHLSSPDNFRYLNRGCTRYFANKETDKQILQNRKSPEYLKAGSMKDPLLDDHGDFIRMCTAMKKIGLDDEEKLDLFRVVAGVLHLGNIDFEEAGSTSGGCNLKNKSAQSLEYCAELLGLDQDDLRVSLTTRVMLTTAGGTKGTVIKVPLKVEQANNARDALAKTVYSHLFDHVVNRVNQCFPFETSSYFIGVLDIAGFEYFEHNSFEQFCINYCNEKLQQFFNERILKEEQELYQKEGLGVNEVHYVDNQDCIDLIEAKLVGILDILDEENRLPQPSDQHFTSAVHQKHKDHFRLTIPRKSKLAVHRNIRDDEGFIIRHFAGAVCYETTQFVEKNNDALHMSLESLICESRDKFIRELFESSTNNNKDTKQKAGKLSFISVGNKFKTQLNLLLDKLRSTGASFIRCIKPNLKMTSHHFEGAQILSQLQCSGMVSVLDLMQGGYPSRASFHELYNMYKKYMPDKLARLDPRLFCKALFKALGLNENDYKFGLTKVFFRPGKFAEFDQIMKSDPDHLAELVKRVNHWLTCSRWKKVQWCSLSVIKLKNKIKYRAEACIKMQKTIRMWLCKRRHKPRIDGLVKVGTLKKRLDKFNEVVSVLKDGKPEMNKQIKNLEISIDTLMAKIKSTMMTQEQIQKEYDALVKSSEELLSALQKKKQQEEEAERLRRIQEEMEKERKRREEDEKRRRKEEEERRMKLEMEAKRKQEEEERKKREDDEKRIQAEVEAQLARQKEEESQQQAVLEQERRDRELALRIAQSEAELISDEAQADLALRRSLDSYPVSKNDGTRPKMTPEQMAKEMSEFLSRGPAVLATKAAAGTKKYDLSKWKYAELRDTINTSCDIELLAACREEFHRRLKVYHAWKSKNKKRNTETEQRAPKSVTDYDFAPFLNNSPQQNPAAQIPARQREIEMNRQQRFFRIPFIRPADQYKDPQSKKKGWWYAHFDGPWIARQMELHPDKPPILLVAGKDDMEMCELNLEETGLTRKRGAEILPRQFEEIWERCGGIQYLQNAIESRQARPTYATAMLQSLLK
UniProt Q96DH6: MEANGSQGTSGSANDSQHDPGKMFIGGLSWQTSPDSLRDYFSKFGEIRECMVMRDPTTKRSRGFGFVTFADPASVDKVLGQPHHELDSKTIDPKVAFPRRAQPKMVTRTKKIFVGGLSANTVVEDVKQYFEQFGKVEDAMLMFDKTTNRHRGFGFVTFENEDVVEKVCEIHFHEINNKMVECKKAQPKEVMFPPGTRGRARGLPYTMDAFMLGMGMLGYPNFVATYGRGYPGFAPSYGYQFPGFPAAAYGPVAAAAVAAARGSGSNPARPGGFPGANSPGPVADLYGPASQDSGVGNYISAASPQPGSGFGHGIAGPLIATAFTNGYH
UniProt P53602: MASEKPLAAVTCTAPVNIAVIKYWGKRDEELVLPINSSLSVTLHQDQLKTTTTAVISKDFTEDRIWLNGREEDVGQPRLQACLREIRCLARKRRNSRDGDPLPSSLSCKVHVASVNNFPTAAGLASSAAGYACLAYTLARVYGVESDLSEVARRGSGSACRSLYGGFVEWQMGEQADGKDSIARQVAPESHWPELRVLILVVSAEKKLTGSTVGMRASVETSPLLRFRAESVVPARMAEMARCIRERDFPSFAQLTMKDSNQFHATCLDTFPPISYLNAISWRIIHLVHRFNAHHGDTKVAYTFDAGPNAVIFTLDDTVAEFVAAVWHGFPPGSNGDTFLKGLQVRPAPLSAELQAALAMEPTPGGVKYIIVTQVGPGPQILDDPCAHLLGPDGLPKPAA
UniProt Q9Y2Z2: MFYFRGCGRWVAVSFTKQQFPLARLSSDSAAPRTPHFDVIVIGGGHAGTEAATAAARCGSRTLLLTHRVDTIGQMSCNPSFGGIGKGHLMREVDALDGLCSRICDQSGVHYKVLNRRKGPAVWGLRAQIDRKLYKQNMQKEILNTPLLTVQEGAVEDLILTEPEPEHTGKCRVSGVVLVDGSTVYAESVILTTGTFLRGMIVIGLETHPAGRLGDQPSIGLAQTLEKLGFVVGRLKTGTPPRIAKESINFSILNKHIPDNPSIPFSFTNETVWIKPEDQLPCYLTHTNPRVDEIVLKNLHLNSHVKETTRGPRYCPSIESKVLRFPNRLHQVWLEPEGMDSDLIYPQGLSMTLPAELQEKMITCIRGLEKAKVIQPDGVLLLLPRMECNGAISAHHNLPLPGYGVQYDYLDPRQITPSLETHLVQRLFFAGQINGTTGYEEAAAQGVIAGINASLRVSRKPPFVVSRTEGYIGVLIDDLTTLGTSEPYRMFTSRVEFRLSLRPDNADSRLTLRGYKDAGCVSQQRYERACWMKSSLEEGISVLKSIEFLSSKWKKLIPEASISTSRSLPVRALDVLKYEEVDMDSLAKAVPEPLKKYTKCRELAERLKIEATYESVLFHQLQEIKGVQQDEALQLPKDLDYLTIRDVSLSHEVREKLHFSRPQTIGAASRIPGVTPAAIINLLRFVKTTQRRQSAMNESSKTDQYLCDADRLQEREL
UniProt Q9C0I1: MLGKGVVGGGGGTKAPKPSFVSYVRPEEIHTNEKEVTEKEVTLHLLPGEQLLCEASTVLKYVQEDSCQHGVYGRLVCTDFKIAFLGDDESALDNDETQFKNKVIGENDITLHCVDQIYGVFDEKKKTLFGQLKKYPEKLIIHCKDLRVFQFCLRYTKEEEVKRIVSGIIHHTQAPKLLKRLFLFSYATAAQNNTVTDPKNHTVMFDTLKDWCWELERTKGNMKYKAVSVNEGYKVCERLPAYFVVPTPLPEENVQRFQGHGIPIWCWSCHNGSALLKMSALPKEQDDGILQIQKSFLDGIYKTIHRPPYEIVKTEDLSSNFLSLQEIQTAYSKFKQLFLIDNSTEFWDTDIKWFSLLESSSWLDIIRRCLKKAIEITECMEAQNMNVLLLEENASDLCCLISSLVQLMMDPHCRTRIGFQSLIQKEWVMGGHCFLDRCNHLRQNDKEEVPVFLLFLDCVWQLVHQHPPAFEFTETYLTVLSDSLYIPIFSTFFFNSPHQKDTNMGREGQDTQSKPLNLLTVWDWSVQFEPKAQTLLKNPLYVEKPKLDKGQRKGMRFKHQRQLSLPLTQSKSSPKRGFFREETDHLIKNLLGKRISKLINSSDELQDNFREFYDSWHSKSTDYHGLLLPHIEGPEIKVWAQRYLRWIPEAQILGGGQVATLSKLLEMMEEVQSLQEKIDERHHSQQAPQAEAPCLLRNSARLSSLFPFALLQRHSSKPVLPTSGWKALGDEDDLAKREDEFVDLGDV
UniProt P60660, whole entry, looked up: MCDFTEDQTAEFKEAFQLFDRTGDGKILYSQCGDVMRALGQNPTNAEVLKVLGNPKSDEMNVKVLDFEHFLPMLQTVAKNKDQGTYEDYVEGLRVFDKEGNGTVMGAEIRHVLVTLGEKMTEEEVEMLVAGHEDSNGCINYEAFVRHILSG
UniProt Q99417: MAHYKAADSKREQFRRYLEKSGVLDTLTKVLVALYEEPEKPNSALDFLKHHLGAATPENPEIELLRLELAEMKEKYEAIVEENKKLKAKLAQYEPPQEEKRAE
UniProt Q86UE4: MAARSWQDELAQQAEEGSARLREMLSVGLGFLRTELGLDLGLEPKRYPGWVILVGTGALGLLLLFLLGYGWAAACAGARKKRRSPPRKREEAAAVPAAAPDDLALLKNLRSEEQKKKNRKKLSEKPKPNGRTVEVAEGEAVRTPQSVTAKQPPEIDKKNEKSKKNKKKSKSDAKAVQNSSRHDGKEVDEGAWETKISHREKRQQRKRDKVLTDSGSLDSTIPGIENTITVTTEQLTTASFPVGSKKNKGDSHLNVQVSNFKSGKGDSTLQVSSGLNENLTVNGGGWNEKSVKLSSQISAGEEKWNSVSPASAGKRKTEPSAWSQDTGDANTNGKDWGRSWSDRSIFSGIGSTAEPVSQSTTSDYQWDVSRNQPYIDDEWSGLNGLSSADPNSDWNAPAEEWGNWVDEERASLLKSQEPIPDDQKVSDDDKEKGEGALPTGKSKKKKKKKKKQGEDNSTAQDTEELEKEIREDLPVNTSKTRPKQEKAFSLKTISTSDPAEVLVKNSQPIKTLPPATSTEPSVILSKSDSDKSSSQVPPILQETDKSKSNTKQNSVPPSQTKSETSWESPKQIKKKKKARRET

[2] = compound: NC(=O)c1cnc(N[C@@H]2CCCC[C@@H]2N)nc1Nc1cccc(-n2nccn2)c1
Summary of the method: as §1

[3] = compound: NC1(c2ccc(-c3nc4ccn5c(=O)[nH]nc5c4cc3-c3ccccc3)cc2)CCC1
Summary of the method: as §1

[4] = compound: NCC(=O)Nc1ccc(-n2nc(C(F)(F)F)cc2-c2ccc3c(ccc4ccccc43)c2)cc1
Summary of the method: as §1

[5] = compound: Nc1ccccc1NC(=O)c1ccc(CNC(=O)OCc2cccnc2)cc1 [entinostat]
Summary of the method: as §1

[6] = compound: O=C(CCCCCCC(=O)Nc1ccccc1)NO [vorinostat]
Summary of the method: as §1

[7] = compound: O=C(CCCCCCNC(=O)c1cnc(N(c2ccccc2)c2ccccc2Cl)nc1)NO [citarinostat]
Summary of the method: as §1

[8] = compound: O=C(O)c1ccc2c(c1)nc(Nc1cccc(Cl)c1)c1ccncc12 [silmitasertib]
Summary of the method: as §1

[9] = compound: O=C1NC(=O)C(c2cnc3ccccn23)=C1c1cn2c3c(cc(F)cc13)CN(C(=O)N1CCCCC1)CC2
Summary of the method: as §1

[10] = compound: c1cc(OCCN2CCCCC2)cc(-c2n[nH]c3ccc(-c4nnc[nH]4)cc23)c1
Summary of the method: as §1

Measured: log2 fold change

MRPL9 (UniProt Q9BYD2)
inactive: [1] 0.019 | [2] 0.023 | [3] -0.06 | [4] 0.083 | [5] 0.046 | [6] 0.008 | [7] 0.017 | [8] -0.031 | [9] 0.092 | [10] -0.049

MSN (UniProt P26038)
inactive: [1] 0.042 | [2] -0.011 | [3] 0.01 | [4] 0.02 | [5] 0.014 | [6] -0.02 | [7] -0.001 | [8] -0.018 | [9] 0.004 | [10] 0.011

MTMR14 (UniProt Q8NCE2)
inactive: [1] -0.02 | [2] -0.08 | [3] -0.087 | [4] -0.075 | [5] 0.024 | [6] 0.093 | [7] 0.08 | [8] 0.071 | [9] -0.081 | [10] 0.039

2 records picked at random from the list so far, as already listed:
MSN (UniProt P26038)
inactive: [1] 0.042 | [2] -0.011 | [3] 0.01 | [4] 0.02 | [5] 0.014 | [6] -0.02 | [7] -0.001 | [8] -0.018 | [9] 0.004 | [10] 0.011

MTMR14 (UniProt Q8NCE2)
inactive: [1] -0.02 | [2] -0.08 | [3] -0.087 | [4] -0.075 | [5] 0.024 | [6] 0.093 | [7] 0.08 | [8] 0.071 | [9] -0.081 | [10] 0.039

Carrying on.

MTX1 (UniProt Q13505)
inactive: [1] -0.092 | [2] 0.032 | [3] 0.03 | [4] 0.041 | [5] -0.01 | [6] -0.031 | [7] -0.021 | [8] 0.009 | [9] -0.072 | [10] -0.005

MYO6 isoform 6 (UniProt Q9UM54)
inactive: [1] 0.045 | [2] -0.001 | [3] -0.07 | [4] 0.008 | [5] -0.025 | [6] 0.013 | [7] -0.033 | [8] -0.008 | [9] 0.001 | [10] -0.04

MRPS16 (UniProt Q9Y3D3)
inactive: [1] 0.026 | [2] -0.04 | [3] -0.079 | [4] -0.05 | [5] 0.075 | [6] 0.133 | [7] 0.057 | [8] -0.063 | [9] -0.016 | [10] -0.036

MSI2 (UniProt Q96DH6)
inactive: [1] 0.012 | [2] -0.003 | [3] 0.063 | [4] 0.01 | [5] 0.042 | [6] 0.002 | [7] 0.037 | [8] 0.066 | [9] 0.128 | [10] -0.134

MRTO4 (UniProt Q9UKD2)
inactive: [1] 0.031 | [2] 0.329 | [3] 0.245 | [4] 0 | [5] 0.021 | [6] 0.055 | [7] 0.075 | [8] 0.087 | [9] 0.127 | [10] -0.161

MVD (UniProt P53602)
inactive: [1] -0.007 | [2] -0.017 | [3] -0.06 | [4] -0.004 | [5] -0.017 | [6] -0.006 | [7] 0.02 | [8] -0.077 | [9] -0.061 | [10] 0

MTO1 isoform 6 (UniProt Q9Y2Z2)
inactive: [1] 0.081 | [2] 0.019 | [3] -0.248 | [4] -0.161 | [5] 0.086 | [6] 0.056 | [7] 0.108 | [8] -0.141 | [9] -0.112 | [10] -0.057

MTMR12 (UniProt Q9C0I1)
inactive: [1] -0.001 | [2] -0.025 | [3] -0.016 | [4] -0.032 | [5] -0.022 | [6] -0.016 | [7] 0.013 | [8] 0.007 | [9] -0.006 | [10] -0.007

MYL6 isoform 2 (UniProt P60660)
inactive: [1] 0.033 | [2] -0.01 | [3] -0.079 | [4] -0.018 | [5] 0.11 | [6] 0 | [7] -0.002 | [8] 0.028 | [9] -0.076 | [10] 0.007

MYCBP (UniProt Q99417)
inactive: [1] -0.047 | [2] -0.091 | [3] 0.034 | [4] -0.087 | [5] 0.002 | [6] -0.053 | [7] 0.009 | [8] -0.044 | [9] -0.061 | [10] -0.043

MTDH (UniProt Q86UE4)
inactive: [1] 0.134 | [2] 0.08 | [3] 0.364 | [4] 0.207 | [5] -0.079 | [6] 0 | [7] -0.084 | [8] 0.162 | [9] 0.228 | [10] -0.167

MRPS30 (UniProt Q9NP92)
inactive: [1] 0.086 | [2] 0.138 | [3] -0.022 | [4] 0.027 | [5] -0.075 | [6] -0.038 | [7] -0.004 | [8] -0.028 | [9] 0.025 | [10] 0.092

From the supplement of paper PMC10849652
